Results on two substances are retold here after PMC11405040, “PRMT5-mediated FUBP1 methylation accelerates prostate cancer progression” (The Journal of Clinical Investigation, 2024).

Sequences of proteins named here, by UniProt entry; tags and fusion partners are left off.
UniProt Q96AE4: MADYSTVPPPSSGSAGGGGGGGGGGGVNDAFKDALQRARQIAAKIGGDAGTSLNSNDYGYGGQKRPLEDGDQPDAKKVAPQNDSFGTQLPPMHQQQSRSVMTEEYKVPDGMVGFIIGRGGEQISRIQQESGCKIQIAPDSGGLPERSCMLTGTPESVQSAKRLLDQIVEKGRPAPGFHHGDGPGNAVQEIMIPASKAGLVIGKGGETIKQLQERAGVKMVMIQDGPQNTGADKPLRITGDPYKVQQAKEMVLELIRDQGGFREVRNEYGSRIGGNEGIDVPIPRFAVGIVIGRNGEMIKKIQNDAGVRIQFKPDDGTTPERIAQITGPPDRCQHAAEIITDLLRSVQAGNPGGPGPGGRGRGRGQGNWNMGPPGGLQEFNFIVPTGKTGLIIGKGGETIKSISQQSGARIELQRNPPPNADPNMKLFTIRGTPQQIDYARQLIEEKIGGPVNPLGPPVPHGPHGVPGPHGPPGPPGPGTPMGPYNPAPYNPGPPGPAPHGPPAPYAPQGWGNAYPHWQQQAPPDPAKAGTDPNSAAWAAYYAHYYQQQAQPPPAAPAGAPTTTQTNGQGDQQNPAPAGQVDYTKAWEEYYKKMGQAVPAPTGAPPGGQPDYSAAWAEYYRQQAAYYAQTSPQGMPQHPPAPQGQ
UniProt O14744: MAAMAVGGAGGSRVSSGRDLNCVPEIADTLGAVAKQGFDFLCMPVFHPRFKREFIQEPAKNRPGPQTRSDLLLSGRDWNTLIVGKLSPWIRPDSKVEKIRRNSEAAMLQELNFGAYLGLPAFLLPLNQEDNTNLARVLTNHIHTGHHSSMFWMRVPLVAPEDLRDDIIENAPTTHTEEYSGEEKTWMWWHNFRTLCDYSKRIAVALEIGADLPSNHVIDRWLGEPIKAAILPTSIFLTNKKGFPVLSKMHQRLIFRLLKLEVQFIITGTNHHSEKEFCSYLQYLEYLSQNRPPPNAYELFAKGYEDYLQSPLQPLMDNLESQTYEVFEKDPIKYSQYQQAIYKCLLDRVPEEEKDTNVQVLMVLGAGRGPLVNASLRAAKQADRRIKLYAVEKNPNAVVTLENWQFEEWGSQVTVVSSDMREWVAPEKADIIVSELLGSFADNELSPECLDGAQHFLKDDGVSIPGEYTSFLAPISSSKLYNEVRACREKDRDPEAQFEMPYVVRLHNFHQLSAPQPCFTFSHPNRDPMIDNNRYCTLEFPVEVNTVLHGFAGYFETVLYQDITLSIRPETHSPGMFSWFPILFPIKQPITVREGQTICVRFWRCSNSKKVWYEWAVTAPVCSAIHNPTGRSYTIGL
UniProt Q9BQA1: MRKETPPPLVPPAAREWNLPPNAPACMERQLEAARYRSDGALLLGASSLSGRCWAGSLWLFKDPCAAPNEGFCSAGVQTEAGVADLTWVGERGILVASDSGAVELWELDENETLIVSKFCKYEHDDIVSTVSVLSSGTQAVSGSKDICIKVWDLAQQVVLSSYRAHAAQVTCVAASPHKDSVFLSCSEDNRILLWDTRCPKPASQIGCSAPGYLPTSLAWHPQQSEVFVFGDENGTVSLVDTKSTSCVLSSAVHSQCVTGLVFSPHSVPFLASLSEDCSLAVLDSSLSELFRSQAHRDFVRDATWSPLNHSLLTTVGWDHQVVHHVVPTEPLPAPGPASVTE

The target of this assay is FUBP1, bait of the immunoprecipitation-mass spectrometry (human) (UniProt Q96AE4). As to the kind of experiment: affinity purification with mass spectrometry; immunoprecipitation of FUBP1, in-gel digestion with trypsin and chymotrypsin, LC-MS/MS; cells not given.

No constants are given. Whether binding was seen depends on the method and setting. Binding seen in cells or lysates may run through a third protein. Here binding means that the protein was enriched with, or labelled near, the bait; the list need not be complete.

Turning to “PRMT5, found in the FUBP1 immunoprecipitate by mass spectrometry (from UniProt O14744 1-637) (enzyme)”, the binding result is listed as “binds”.
Next, “MEP50, found in the FUBP1 immunoprecipitate by mass spectrometry (from UniProt Q9BQA1 1-342)”: “binds”.
